Measurements reported in PubChem BioAssay AID493014 (National Center for Advancing Translational Sciences (NCATS), 2011).
The other results are listed elsewhere or left out. These are further read-outs of the screen, such as a control signal, another cell line or another target. No call is given for them. The list favours compounds with an active or inconclusive main result. Words in brackets tell the shape of the fitted curve; partial curves, single points and poor fits give uncertain potencies.

Experiment: qHTS Assay to Find Inhibitors of Chronic Active B-Cell Receptor Signaling
Conditions: ABC-DLBCL IkBa-CBG/CBR reporter, luminescence ratio (green luciferase fused to IkBa over red control in TMD8 lymphoma cells), 4 h
How it was run: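 TMD8 ABC-DLBCL cells carrying doxycycline-inducible green luciferase fused to IkappaBalpha plus unfused red luciferase were exposed to compounds (up to 46 uM) for 4 hrs at 37C. Activity came from the overlap-corrected green/red luminescence ratio.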

[1] = measured here: CBR red luminescence, cell number
[2] = measured here: IkBa-CBG green luminescence

With `COC(=O)C1=C(C)N(Cc2ccccc2)C(=NCc2ccccc2)N[C@H]1c1ccccc1` the AC50 [1] was 22.4 µM [falling, single point].

For `CC1CCC2(CC1)NC(=O)c1ccccc1O2` (stereo unspecified), the AC50 [1] was 7.31 µM [falling, single point].

For `CC(C)(C)c1ccc(NC(=O)c2ccccc2)c([N+](=O)[O-])c1`, the AC50 [1] was 12.6 µM [rising, partial curve, poor fit].

In the case of `CCCc1nc(SCC(=O)NC2CCCC2)c2ccccc2n1`, the AC50 [1] is reported as 25.1 µM [falling, single point].

For `CCCN1CCN(C(c2cc3cc(OCC)ccc3[nH]c2=O)c2nnnn2C2CCCCC2)CC1` (stereo unspecified), the AC50 [1] was 14.1 µM [rising, partial curve, poor fit].

For `Nc1c(C(=O)NCc2ccc3c(c2)OCO3)c2nc3ccccc3nc2n1CCCN1CCOCC1`, the AC50 [1] was 22.4 µM [falling, partial curve, poor fit].

In the case of `CC(=O)N1CCc2cc(S(=O)(=O)NCCC(=O)Nc3cc(C)cc(C)c3)ccc21`, the AC50 [1] is reported as 29.1 µM [rising, single point].

For `COc1cccc2cc(-c3ccccc3)c(=O)oc12`, the AC50 [1] was 1 µM [falling, partial curve, poor fit] and the AC50 [2] was 1.41 µM [rising, full curve].

For `O=C(NCCc1ccc(F)cc1)c1n[nH]c2ccccc12`, the AC50 [1] was 5.62 µM [falling, partial curve].

In the case of `COc1ccc(NC(=O)C2C3C=CC(O3)C2C(=O)O)cc1` (stereo unspecified), the AC50 [1] is reported as 4.47 µM [rising, full curve, poor fit].

In the case of `CSc1ncc(OCc2ccccc2)c(=O)[nH]1`, the AC50 [1] is reported as 25.1 µM [falling, single point].

In the case of `COC(=O)c1c(NC(=O)CSc2nnc(CNc3ccc(Cl)cc3)o2)sc(C)c1C`, the AC50 [1] is reported as 32.6 µM [falling, single point].

For `CCCCCC(=O)Nc1ccc2oc(-c3cncc(Br)c3)nc2c1`, the AC50 [1] was 7.08 µM [rising, partial curve, poor fit].

In the case of `O=C(NCCN1CCN(C(=O)c2c(F)cccc2F)CC1)C(=O)Nc1ccc(Cl)cc1`, the AC50 [1] is reported as 15.8 µM [falling, partial curve, poor fit].

With `Cc1cc2cc(CN3C(=O)c4ccccc4C3=O)ccc2[nH]1` the AC50 [1] was 1.3 µM [falling, full curve].

In the case of `C/C(=N\NC(=O)c1cccc(N/N=C(\C)c2cc(O)ccc2O)c1)c1cc(O)ccc1O`, the AC50 [1] is reported as 5.01 µM [falling, partial curve].

In the case of `OCCCc1nc2ccccc2n1CCc1ccccc1`, the AC50 [1] is reported as 20.6 µM [falling, partial curve].

With `CCCCCC(N)=O` the AC50 [1] was 29.1 µM [rising, single point].

For `Cc1ccc(NS(=O)(=O)c2cc(-c3n[nH]c(=O)c4ccccc34)ccc2C)cc1`, the AC50 [1] was 2.91 µM [rising, single point] and the AC50 [2] was 5.17 µM [falling, partial curve].

With `COc1cc(C(=O)NC(C)c2cccc3ccccc23)cc(OC)c1OC` (stereo unspecified) the AC50 [1] was 0.447 µM [rising, partial curve, poor fit].

With `CCOP(=O)(c1ccc(N(C)C)cc1)C(O)c1ccccc1F` (stereo unspecified) the AC50 [1] was 6.31 µM [rising, single point].

In the case of `COCCn1c(SCC(=O)NC(=O)NC2CCCCC2)nc2ccccc2c1=O`, the AC50 [1] is reported as 9.2 µM [falling, single point].

For `CC1=CC(C)(C)n2c(O)c(N=N)c3c(C)c(C)cc1c32`, the AC50 [1] was 12.6 µM [rising, partial curve].

For `CC(NC(=O)Cc1ccccc1)C(=O)O` (stereo unspecified), the AC50 [1] was 18.4 µM [falling, single point].

With `Cc1onc(-c2c(F)cccc2Cl)c1C(=O)Nc1c(C)n(C)n(-c2ccccc2)c1=O` the AC50 [1] was 35.5 µM [falling, single point].

With `O=C1C=C(NNC(=O)c2cccnc2)CC(c2ccco2)C1` (stereo unspecified) the AC50 [1] was 35.5 µM [falling, single point].

With `Cc1cc2c(C)nc(N/N=C/c3ccc(F)cc3)nc2o1` the AC50 [1] was 16.4 µM [falling, single point].

In the case of `COCCOC(=O)C1=C(C)NC(=O)NC1c1ccc(OC(=O)c2ccco2)c(OC)c1` (stereo unspecified), the AC50 [1] is reported as 29.1 µM [falling, single point].

In the case of `Cc1c(Cl)cccc1Nc1nc(N)nc(CSc2nc3ccccc3s2)n1`, the AC50 [1] is reported as 6.51 µM [rising, partial curve, poor fit].

For `O=C(CCC(=O)N1CCSc2ccccc21)NCc1ccc(Cl)cc1`, the AC50 [1] was 15.8 µM [rising, partial curve, poor fit].

In the case of `Cc1cccc(CSc2nn3c(=O)c(C)nnc3s2)c1`, the AC50 [1] is reported as 16.4 µM [falling, single point].

For `COc1ccc(C(=O)C=CNNC(=O)c2ccc(Cl)cc2)cc1`, the AC50 [1] was 7.94 µM [falling, partial curve].

In the case of `Cc1cc(C(=O)NN=C2CCCCCCC2)c2ccccc2n1`, the AC50 [1] is reported as 29.1 µM [rising, single point] and the AC50 [2] is reported as 29.1 µM [falling, single point].

With `Cc1ccc(C(=O)CSc2nc(C)cc(SCc3nnc(-c4ccccc4)o3)n2)cc1` the AC50 [1] was 0.651 µM [falling, full curve, poor fit].

With `COc1ccccc1NC(=O)C(NC(=O)OC(C)(C)C)C(C)OCc1ccccc1` (stereo unspecified) the AC50 [1] was 10 µM [falling, partial curve].

With `Cc1ccc2nc(C)c(C(=O)N/N=C/c3cccc([N+](=O)[O-])c3)cc2c1` the AC50 [1] was 4.61 µM [rising, full curve, poor fit].

With `Cc1ccc2oc(C(F)(F)C(F)F)cc(=O)c2c1` the AC50 [1] was 35.5 µM [rising, single point].

For `CC(=O)Nc1cccc(C(=O)Nc2ccccc2C(=O)O)c1`, the AC50 [1] was 5.8 µM [falling, partial curve, poor fit].

With `N#Cc1nc(COc2cccc(Cl)c2)oc1N1CCN(c2ccccc2)CC1` the AC50 [1] was 20.6 µM [falling, single point].

For `CSc1ccccc1NC(=O)CCc1ccccc1`, the AC50 [1] was 15.8 µM [falling, partial curve, poor fit].

In the case of `O=C(CSc1nnc(-c2ccc(F)cc2)c2ccccc12)Nc1ccccc1`, the AC50 [1] is reported as 20.6 µM [falling, single point].

For `CN(C(=O)CSc1nc(N)c2c3c(sc2n1)CSC(C)(C)C3)c1ccccc1`, the AC50 [1] was 25.9 µM [falling, single point].

For `FC(F)(F)c1ccc(C2[C@H]3CN(Cc4ccc(-c5ccccc5)cc4)[C@H](c4ccccc4)C34CC2(c2ccccc2)C4)cc1` (stereo partly specified), the AC50 [1] was 5.62 µM [rising, single point].

With `COc1ccc2nc(NC(=O)c3ccoc3C)sc2c1` the AC50 [1] was 3.66 µM [falling, full curve].

For `COc1ccc(C2c3[nH]c4ccccc4c3CCN2CCCn2cccn2)cc1C` (stereo unspecified), the AC50 [1] was 35.5 µM [falling, single point].

In the case of `CNC(=S)N1CCN(S(=O)(=O)c2ccc3ccccc3c2)CC1`, the AC50 [1] is reported as 4.47 µM [falling, full curve, poor fit].

With `O=C(Nc1ccc(F)cc1)c1cccc(N2C(=O)c3ccccc3C2=O)c1` the AC50 [1] was 7.94 µM [falling, partial curve, poor fit].

In the case of `O=[N+]([O-])c1ccc2nc(-c3ccccc3[N+](=O)[O-])[nH]c2c1`, the AC50 [1] is reported as 12.6 µM [falling, partial curve, poor fit].

For `O=C(CCCN1C(=O)/C(=C/c2ccccc2Cl)SC1=S)NCCCN1CCOCC1`, the AC50 [1] was 12.6 µM [falling, partial curve].

With `COC(=O)N1CCc2c(sc(NC(=O)C3COc4ccccc4O3)c2C(N)=O)C1` (stereo unspecified) the AC50 [1] was 25.9 µM [falling, partial curve].

For `C/C(CC1CC(C)(C)OC1=O)=N\NC(N)=S` (stereo unspecified), the AC50 [1] was 0.501 µM [rising, full curve, poor fit].

For `Cc1ccc2cc(CN(CCO)Cc3nnnn3Cc3ccc(F)cc3)c(=O)[nH]c2c1`, the AC50 [1] was 15.8 µM [falling, partial curve, poor fit].

With `O=C(C1CC(=O)N(c2ccccc2)C1)N1CCN(C2=NS(=O)(=O)c3ccccc32)CC1` (stereo unspecified) the AC50 [1] was 0.82 µM [rising, partial curve, poor fit].

With `C[C@H]1C[C@H]2[C@@H]3CCC4=CC(=O)C=C[C@]4(C)[C@@]3(Cl)[C@@H](O)C[C@]2(C)[C@@]1(O)C(=O)CO` the AC50 [1] was 0.0259 µM [rising, full curve, poor fit].

For `COC(=O)C(NC(=O)C(C)Oc1ccccc1)C(C)C` (stereo unspecified), the AC50 [1] was 1.16 µM [rising, full curve].

For `COc1ccc(NC(=O)c2cc3ccccn3n2)cc1`, the AC50 [1] was 20.6 µM [falling, partial curve].

For `O=C(c1cccc(-c2ccc(O)cc2)c1)N1CCN(c2ccc(F)cc2)CC1`, the AC50 [1] was 35.5 µM [rising, single point].

With `CCn1c(CN2CCN(Cc3ccc(C)cc3)C(CCO)C2)nc2ccccc21` (stereo unspecified) the AC50 [1] was 11.2 µM [falling, single point].

With `O=c1[nH]c2cc3c(cc2cc1C(c1nnnn1CC1CCCO1)N1CCCCCC1)OCO3` (stereo unspecified) the AC50 [1] was 25.9 µM [rising, single point].

With `CC(C)[C@@H](C(=O)N[C@@H](Cc1ccccc1)C(=O)O)N1C(=O)N2CCc3c([nH]c4ccccc34)[C@@]2(C)C1=O` the AC50 [1] was 3.55 µM [falling, full curve, poor fit].

With `COC(=O)c1ccccc1N(C)S(C)(=O)=O` the AC50 [1] was 0.82 µM [rising, full curve, poor fit].

For `CCOC(=O)c1c(C)[nH]c(C(=O)COC(=O)CN2C(=O)C3CCCCC3C2=O)c1C` (stereo unspecified), the AC50 [1] was 35.5 µM [falling, single point].

In the case of `CCOc1ccccc1NC(=O)CCCNC(=O)c1ccc(Cl)cc1`, the AC50 [1] is reported as 10 µM [rising, partial curve, poor fit].
